Test results as given in patent US11542481B2, “Morphinan N-demethylase isolated from the methylobacterium thebainfresser and methods of use thereof” (priority 2017, dated 2023).
At least one structure is not confirmed: it was looked up by name or label, or the drawing left a doubt.

System: MND enzyme
Type: biochemical, Methylobacterium Thebainfresser
Procedure: Samples were injected by the UFLCXR (Shimadzu) autosampler/pump system using a 0.5 ml/min flow rate prior to separation using a Gemini C-18 column (150×2.00 mm, 5μ, 110 Å; Phenomenex) and introduction into the QTRAP 6500. The program consisted of a binary gradient with solvent A (5% acetonitrile/5% MeOH/10 mM ammonium acetate/15 mM NH4OH) and solvent B (90% acetonitrile/10 mM ammonium acetate/15 mM NH4OH) and the following gradient: 0-2.0 min 0% B, 2.0-9.0 min 0-44% B, 9.0-11.0 min 44-100% solvent B, 11-13 min 100% B and 100-0% solvent B from 13-14 min and held at 0% B for an additional 8 min. EPI scans for each substrate and predicted product mass were included for each enzyme assay and source parameters were identical to those used for the QTRAP 4000 above except CE and DP which were based upon the optimum for each individual compound. Masses used can be found in table 3. Data were analyzed using Analyst 1.6.2.
Substrates were prepared in a 1 mM stock concentration then diluted to 100 μM working concentration for use in enzyme assays with the MND enzyme. […] All samples were diluted 10 fold with 50% MeOH and analyzed on the QTRAP 6500 using method 2 and a 20 μl injection volume. The percentage of substrate demethylation was calculated based upon reduction of substrate in the enzyme assay as compared to the negative control. […]

For `CNC(=O)Oc1ccc2c(c1)[C@]1(C)CCN(C)[C@@H]1N2C` [Physostigmine], the “substrate acceptance / detectable N-demethylase activity (in words)” value (overnight assays, purified MND enzyme from PLUSE cells) was “accepted” and the Percent demethylated (overnight enzyme assay at 30° C., 7.5 μM substrate, ~36 μg purified MND enzyme, pH 8.0, reduction of substrate vs empty vector control, percentages approximate) was 37%.
